Measured values from paper PMC10576442.
These are yes or no findings as the source states them, for the method shown. In cells and extracts the contact can be indirect. Some binding calls cover weakened binding; strength is not graded here. For some assays here: Sequences can lack the tags named with a protein.

The chains behind the UniProt entries cited, without tags or fusion partners.
UniProt Q13616: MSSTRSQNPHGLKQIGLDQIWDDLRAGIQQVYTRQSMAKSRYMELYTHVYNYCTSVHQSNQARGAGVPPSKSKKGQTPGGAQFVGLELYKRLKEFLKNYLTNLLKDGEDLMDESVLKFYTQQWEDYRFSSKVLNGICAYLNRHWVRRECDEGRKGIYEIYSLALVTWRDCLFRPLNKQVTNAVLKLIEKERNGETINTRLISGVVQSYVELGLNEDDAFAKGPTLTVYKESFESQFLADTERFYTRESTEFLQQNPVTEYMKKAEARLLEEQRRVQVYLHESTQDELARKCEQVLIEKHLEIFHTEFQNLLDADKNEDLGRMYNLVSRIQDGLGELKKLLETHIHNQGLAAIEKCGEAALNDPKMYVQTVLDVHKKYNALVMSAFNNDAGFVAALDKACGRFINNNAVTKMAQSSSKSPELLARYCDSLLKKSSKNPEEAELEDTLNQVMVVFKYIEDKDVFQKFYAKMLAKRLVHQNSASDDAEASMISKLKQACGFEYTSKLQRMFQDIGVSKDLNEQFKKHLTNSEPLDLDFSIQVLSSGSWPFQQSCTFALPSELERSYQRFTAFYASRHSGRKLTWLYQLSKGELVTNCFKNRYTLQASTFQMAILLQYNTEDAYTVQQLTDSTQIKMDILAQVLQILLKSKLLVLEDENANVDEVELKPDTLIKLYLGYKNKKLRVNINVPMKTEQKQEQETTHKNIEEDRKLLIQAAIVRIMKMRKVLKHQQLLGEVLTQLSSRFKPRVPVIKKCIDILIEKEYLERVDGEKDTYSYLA

T1: FBXO11 (as used with the hnRNPA2B1 truncations and the CUL1 truncations) (UniProt Q86XK2)
T1 sequence: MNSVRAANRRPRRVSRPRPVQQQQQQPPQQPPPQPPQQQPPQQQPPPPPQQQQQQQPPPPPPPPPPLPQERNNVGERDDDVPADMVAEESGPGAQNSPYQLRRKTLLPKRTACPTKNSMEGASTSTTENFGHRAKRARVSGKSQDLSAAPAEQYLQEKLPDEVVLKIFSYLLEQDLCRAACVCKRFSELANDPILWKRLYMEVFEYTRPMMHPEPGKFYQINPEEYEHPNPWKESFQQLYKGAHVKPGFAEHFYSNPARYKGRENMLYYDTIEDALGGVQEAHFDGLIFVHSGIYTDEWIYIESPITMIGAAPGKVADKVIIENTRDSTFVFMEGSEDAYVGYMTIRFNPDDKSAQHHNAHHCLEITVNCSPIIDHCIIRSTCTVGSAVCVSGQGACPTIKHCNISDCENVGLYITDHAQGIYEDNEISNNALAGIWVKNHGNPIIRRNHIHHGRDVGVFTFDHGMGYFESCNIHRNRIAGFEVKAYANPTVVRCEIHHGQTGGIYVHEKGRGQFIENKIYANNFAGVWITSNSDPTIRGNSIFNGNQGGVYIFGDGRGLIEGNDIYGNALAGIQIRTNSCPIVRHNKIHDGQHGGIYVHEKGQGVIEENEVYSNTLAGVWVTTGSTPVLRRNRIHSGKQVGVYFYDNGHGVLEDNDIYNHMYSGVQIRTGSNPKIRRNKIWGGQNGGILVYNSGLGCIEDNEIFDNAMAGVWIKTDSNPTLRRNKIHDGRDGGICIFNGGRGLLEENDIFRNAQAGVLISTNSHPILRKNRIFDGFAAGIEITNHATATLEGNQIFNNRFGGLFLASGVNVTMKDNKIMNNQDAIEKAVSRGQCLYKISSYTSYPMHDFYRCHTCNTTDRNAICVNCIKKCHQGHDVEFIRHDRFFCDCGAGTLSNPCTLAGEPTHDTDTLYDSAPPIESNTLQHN


Assays:
[1] = target: T1, FBXO11 (as used with the hnRNPA2B1 truncations and the CUL1 truncations); experiment: co-IP; FBXO11 with Flag-tagged hnRNPA2B1 and its truncated forms (Figure 7G)
Cullin-1 (CUL1) = Cullin-1 (CUL1) (UniProt Q13616); experiment: co-IP; immunoprecipitation with CUL1 antibody, western blot of F-box proteins; control cells, CAND1 knock-down and CAND1 overexpression (Figure 4H, S6A, S6B)

binding [1] | binding (Cullin-1 (CUL1)) | Binder
binds | – | Flag-tagged hnRNPA2B1 truncation: a segment of 81 amino acids in the RRM_2 region (domain or fragment, UniProt P22626 112-191) KKLFVGGIKEDTEEHHLRDYFEEYGKIDTIEIITDRQSGKKRGFGFVTFDDHDPVDKIVLQKYHTINGHNAEVRKALSRQ
– | binds | F-box protein 11 (FBXO11) (protein, UniProt Q86XK2 1-927) MNSVRAANRRPRRVSRPRPVQQQQQQPPQQPPPQPPQQQPPQQQPPPPPQQQQQQQPPPPPPPPPPLPQERNNVGERDDDVPADMVAEESGPGAQNSPYQLRRKTLLPKRTACPTKNSMEGASTSTTENFGHRAKRARVSGKSQDLSAAPAEQYLQEKLPDEVVLKIFSYLLEQDLCRAACVCKRFSELANDPILWKRLYMEVFEYTRPMMHPEPGKFYQINPEEYEHPNPWKESFQQLYKGAHVKPGFAEHFYSNPARYKGRENMLYYDTIEDALGGVQEAHFDGLIFVHSGIYTDEWIYIESPITMIGAAPGKVADKVIIENTRDSTFVFMEGSEDAYVGYMTIRFNPDDKSAQHHNAHHCLEITVNCSPIIDHCIIRSTCTVGSAVCVSGQGACPTIKHCNISDCENVGLYITDHAQGIYEDNEISNNALAGIWVKNHGNPIIRRNHIHHGRDVGVFTFDHGMGYFESCNIHRNRIAGFEVKAYANPTVVRCEIHHGQTGGIYVHEKGRGQFIENKIYANNFAGVWITSNSDPTIRGNSIFNGNQGGVYIFGDGRGLIEGNDIYGNALAGIQIRTNSCPIVRHNKIHDGQHGGIYVHEKGQGVIEENEVYSNTLAGVWVTTGSTPVLRRNRIHSGKQVGVYFYDNGHGVLEDNDIYNHMYSGVQIRTGSNPKIRRNKIWGGQNGGILVYNSGLGCIEDNEIFDNAMAGVWIKTDSNPTLRRNKIHDGRDGGICIFNGGRGLLEENDIFRNAQAGVLISTNSHPILRKNRIFDGFAAGIEITNHATATLEGNQIFNNRFGGLFLASGVNVTMKDNKIMNNQDAIEKAVSRGQCLYKISSYTSYPMHDFYRCHTCNTTDRNAICVNCIKKCHQGHDVEFIRHDRFFCDCGAGTLSNPCTLAGEPTHDTDTLYDSAPPIESNTLQHN
